From PMC12209437
These are yes or no findings as the source states them, for the method shown. In cells and extracts the contact can be indirect. Some entries that bind do so weakly or less than the wild type.

Protein sequences, listed by entry. Tags and fused reporters are not part of them.
UniProt P01106: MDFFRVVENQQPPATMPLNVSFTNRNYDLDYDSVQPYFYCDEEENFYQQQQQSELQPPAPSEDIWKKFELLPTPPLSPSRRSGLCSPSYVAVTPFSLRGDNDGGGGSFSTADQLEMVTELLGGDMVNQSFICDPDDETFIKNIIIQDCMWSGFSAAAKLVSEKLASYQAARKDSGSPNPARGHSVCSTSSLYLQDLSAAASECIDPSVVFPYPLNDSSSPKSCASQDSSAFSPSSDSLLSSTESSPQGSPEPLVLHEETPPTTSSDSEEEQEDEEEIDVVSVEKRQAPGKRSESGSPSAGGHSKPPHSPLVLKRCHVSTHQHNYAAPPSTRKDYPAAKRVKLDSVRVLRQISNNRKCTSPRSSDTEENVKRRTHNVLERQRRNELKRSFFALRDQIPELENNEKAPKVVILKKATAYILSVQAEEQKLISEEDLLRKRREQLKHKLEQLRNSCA

How the values were obtained:
[1] = target: endogenous c-MYC (human (endogenous in HCT-116 and patient-derived CRC-SCs)) (UniProt P01106); assay: co-IP; endogenous proteins, HCT-116 cell lysate (50 mM Tris-HCl pH 7.4, 5 mM EDTA, 250 mM NaCl, 1% Triton X-100), anti-SMYD3 or anti-c-MYC on Dynabeads Protein A, IgG as negative control
[2] = target: endogenous c-MYC (human (endogenous in HCT-116 and patient-derived CRC-SCs)) (UniProt P01106); assay: co-IP; endogenous proteins, whole-cell lysates of patient-derived CRC-SCs, anti-SMYD3 or anti-c-MYC on Dynabeads Protein A, IgG as negative control; also after treatment with the covalent SMYD3 inhibitor EM127, which did not prevent complex formation (Supplementary Fig. 4f)

- binding [1]: binds
- binding [2]: binds
B1: endogenous SMYD3 (enzyme, UniProt Q9H7B4 1-428)
chain: MEPLKVEKFATAKRGNGLRAVTPLRPGELLFRSDPLAYTVCKGSRGVVCDRCLLGKEKLMRCSQCRVAKYCSAKCQKKAWPDHKRECKCLKSCKPRYPPDSVRLLGRVVFKLMDGAPSESEKLYSFYDLESNINKLTEDKKEGLRQLVMTFQHFMREEIQDASQLPPAFDLFEAFAKVICNSFTICNAEMQEVGVGLYPSISLLNHSCDPNCSIVFNGPHLLLRAVRDIEVGEELTICYLDMLMTSEERRKQLRDQYCFECDCFRCQTQDKDADMLTGDEQVWKEVQESLKKIEELKAHWKWEQVLAMCQAIISSNSERLPDINIYQLKVLDCAMDACINLGLLEEALFYGTRTMEPYRIFFPGSHPVRGVQVMKVGKLQLHQGMFPQAMKNLRLAFDIMRVTHGREHSLIEDLILLLEECDANIRAS
